Laboratory results: PubChem BioAssay AID493014 (National Center for Advancing Translational Sciences (NCATS), 2011)
The other results are listed elsewhere or left out. Further columns of the screen follow, without active or inactive calls. Compounds called inactive in the main read-out are mostly missing here. The note in brackets gives the kind of curve behind each potency; many fits are weak.

Assay: qHTS Assay to Find Inhibitors of Chronic Active B-Cell Receptor Signaling
Settings: ABC-DLBCL IkBa-CBG/CBR reporter, luminescence ratio (green luciferase fused to IkBa over red control in TMD8 lymphoma cells), 4 h
Method in brief: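 Compounds up to 46 uM were incubated four hours with TMD8 cells whose green CBG68 luciferase is fused to IkappaBalpha; red CBR luminescence normalised the signal, and concentration-effect curves were fitted to fusion, red and ratio data.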

[1] = measured here: CBR red luminescence, cell number
[2] = measured here: IkBa-CBG green luminescence

Compound	AC50 [1]	AC50 [2]
O=C(CCNS(=O)(=O)c1cccc2nonc12)NCCc1ccc(Cl)cc1	23.1 µM [rising, single point]	–
O=C(Nc1nc2ccccc2[nH]1)c1ccc(Br)o1	3.16 µM [falling, full curve]	–
Cc1nc2cc(-c3sccc3-n3cccc3)nn2c(C)c1C	2.51 µM [rising, partial curve, poor fit]	–
COc1cc(C(CC(=O)N2CCOCC2)c2c(OC)cc(OC)c3ccc(=O)oc23)cc(OC)c1OC (centres undefined)	0.1 µM [rising, full curve, poor fit]	–
O=C(N/N=C/c1ccc(OC(F)F)cc1)C1=COCCO1	12.6 µM [falling, partial curve]	–
CC(C)N(C#N)c1nc(N2CCOCC2)nc(N2CCOCC2)n1	7.08 µM [falling, partial curve, poor fit]	–
CC(=O)Cn1c(=O)oc2ccccc21	11.2 µM [rising, single point]	–
COc1ccc(OC)c(N2Cc3ccccc3C2)c1	–	25.9 µM [rising, partial curve, poor fit]
COc1ccc(-c2nnc(SCC(=O)N3CCCC3)o2)cc1	35.5 µM [rising, single point]	–
COC(=O)c1ccc(NC(=S)NC2CC(C)(C)NC(C)(C)C2)cc1	29.1 µM [falling, single point]	–
c1c2c(cc3sc(N4CCCCC4)nc13)OCCO2	20.6 µM [falling, partial curve]	–
CCNc1nc(N)nc(Oc2ccc(OCC)nn2)n1	18.4 µM [rising, partial curve, poor fit]	–
O=C(CN1CCN(c2ccccc2F)CC1)c1c[nH]c2ccccc12	10 µM [falling, partial curve, poor fit]	–
Cc1ccc(C(=O)C(C)OC(=O)Cc2n[nH]c(=O)c3ccccc23)cc1C (centres undefined)	14.6 µM [rising, partial curve, poor fit]	–
CCOC(=O)C1=C(C)N(CCCCCC(=O)O)C(=O)NC1c1ccc(Cl)cc1 (centres undefined)	15.8 µM [falling, partial curve, poor fit]	–
COc1ccc(CNC(=S)N/N=C/c2ccc(O)c(OC)c2)cc1	–	20.6 µM [falling, partial curve, poor fit]
COc1ccc(NC(=O)c2c(N)no[n+]2[O-])cc1	35.5 µM [falling, single point]	–
O=S1(=O)N=C(N=Nc2c(O)[nH]c3ccccc23)c2ccccc21	3.16 µM [rising, partial curve, poor fit]	–
Cc1c(-c2ccccc2)[n+](=O)c(-c2ccc(Cl)cc2)c(C)n1[O-]	35.5 µM [rising, single point]	–

By substructure: those above with fluorine
Compound	AC50 [1]	AC50 [2]
O=C(N/N=C/c1ccc(OC(F)F)cc1)C1=COCCO1	12.6 µM [falling, partial curve]	–
O=C(CN1CCN(c2ccccc2F)CC1)c1c[nH]c2ccccc12	10 µM [falling, partial curve, poor fit]	–
